Laboratory results reported in PubChem BioAssay AID540256 (National Center for Advancing Translational Sciences (NCATS), 2011).
Hit rate of the full screen: of about 300,000 compounds, about 3,700 (1.2%) were called active. Inconclusive results, whose numbers are uncertain, are shown with a selection of clear calls. The call rests on the fitted dose curve; tested in HEK293 cells. A potency beside an inconclusive call is a rough fit, not a confirmed value.
On the % scale 0 is the no-effect control and ±100 the full control effect; potency means the concentration at half of the fitted maximal effect.

Assay: qHTS for Inhibitors of binding or entry into cells for Lassa Virus; further: nearly all actives have a fitted effect of over 50% in size
Conditions: Lassa virus pseudotype entry inhibition, cell reporter; activity change, negative = inhibition: at 37.9 µM (top of the series) unless noted
For Cc1ccc(C2C(C#N)=C(N)Oc3n[nH]c(-c4cccnc4)c32)o1 (configuration not stated), the Potency was inconclusive: 20 µM [activator, partial curve, poor fit].
With COC(=O)CSc1nc2sccc2c(=O)n1-c1ccccc1 the Potency was inconclusive: 5.62 µM [inhibitor, single point].
With Cc1ccc(-n2c(SCC(=O)Nc3ncc(Cl)cc3Cl)nc3ccccc32)cc1 the Potency was active: 0.291 µM.
For CCOC(=O)c1ccc(N2C(=O)c3[nH]nc(-c4ccc(C)cc4)c3C2c2ccc(O)c(OCC)c2)cc1 (configuration not stated), the Potency was inconclusive: 28.2 µM [inhibitor, partial curve, poor fit].
With CCN(CC)C(=O)CSc1nnc(-c2cc(OC)cc(OC)c2)o1 the Potency was inconclusive: 0.517 µM [inhibitor, full curve, poor fit].
With CCc1ccc(CNC(=O)c2c3c(nc4ccccc24)C(=O)N(C2CCCCC2)C3)cc1 the Potency was inconclusive: 35.5 µM [inhibitor, partial curve, poor fit].
For C=CCSc1nc2c(C(=O)OCC)nnn2c2ccccc12, the Potency was inconclusive: 6.31 µM [inhibitor, single point].
For COc1ccc(CNC(=O)c2cccc(NC(=O)CC3SC(N4CCCCC4)=NC3=O)c2)cc1 (configuration not stated), the Potency was inconclusive: 0.708 µM [activator, single point].
In the case of CCOC(=O)NNC1CC(=O)N(c2ccc(OC)cc2)C1=O (configuration not stated), the “activity change, negative = inhibition” value is reported as inactive: 2.97%.
In the case of COc1ccc(/C=C/C(=O)N(Cc2cccs2)C2CCS(=O)(=O)C2)cc1 (configuration not stated), the “activity change, negative = inhibition” value is reported as inactive: -8.65%.
In the case of ON=C1c2ccccc2-c2ccc(O)cc21, the “activity change, negative = inhibition” value is reported as inactive: 23% [at 46.1 µM].
In the case of O=C(c1ccc(F)cc1)c1cc2ccccc2o1, the Potency is reported as inconclusive: 4.11 µM [activator, full curve].
For COc1ccccc1CNC(=O)c1ccc(CS(=O)(=O)c2c(Cl)cccc2Cl)o1, the Potency was inconclusive: 1.78 µM [inhibitor, partial curve, poor fit].
In the case of Cc1cccc(C(=O)CC(=O)c2cc(Cl)ccc2O)c1, the Potency is reported as inconclusive: 23.1 µM [inhibitor, single point].
In the case of COCC1CCCN(C(=O)c2ccc3nc(Cc4cccc(Cl)c4)oc3c2)C1 (configuration not stated), the Potency is reported as inconclusive: 20 µM [inhibitor, single point].
For CCOC(=O)c1cc(OC(=O)c2cccs2)n(-c2ccccc2)n1, the “activity change, negative = inhibition” value was inactive: -18.5% [at 14.3 µM].
With Cc1ccccc1CN(CC(=O)Nc1cccc([N+](=O)[O-])c1)S(=O)(=O)c1ccc(Cl)cc1 the Potency was inconclusive: 15.8 µM [inhibitor, single point].
With CCC(C)NC(=O)CSc1nc2cc3c(cc2c(=O)n1CCCC(=O)NCCc1ccc(OC)c(OC)c1)OCO3 (configuration not stated) the Potency was inconclusive: 35.5 µM [activator, single point].
For COc1ccc(C(=O)OCC(=O)Nc2ccc3[nH]c(=O)[nH]c3c2)c(OC)c1OC, the Potency was inconclusive: 15.8 µM [activator, single point].
In the case of CN(C(=O)c1ccc(F)cc1)c1ccccc1C(=O)NCc1ccccc1, the Potency is reported as inconclusive: 1.26 µM [inhibitor, single point].
For Cc1cc(/C=C(\C#N)C(=O)Nc2ccccc2)c(C)n1-c1cccnc1, the Potency was inconclusive: 1.41 µM [activator, full curve].
In the case of Brc1ccc(Cn2c(-c3cncs3)nc3ccccc32)cc1, the Potency is reported as inconclusive: 23.1 µM [activator, partial curve, poor fit].
With O=C(Cc1ccc(F)cc1)Nc1c(C(=O)N2CCN(c3ncccn3)CC2)oc2ccccc12 the Potency was inconclusive: 11.2 µM [inhibitor, single point].
In the case of OC(C#CCN1CCCC1)(c1ccccc1)c1cccnc1 (configuration not stated), the “activity change, negative = inhibition” value is reported as inactive: -4.74%.
With COc1cc(NC(=O)C2CCCCC2)c2ncccc2c1 the “activity change, negative = inhibition” value was inactive: 3.1%.
For O=C(N/N=C/c1ccc(N2CCOCC2)cc1)c1ccccc1OCCOc1ccccc1, the Potency was inconclusive: 35.5 µM [inhibitor, single point].
With O=C1CC(Cc2ccccc2)C(=O)N1Cc1ccco1 (configuration not stated) the “activity change, negative = inhibition” value was inactive: -11.8%.
In the case of COc1cc(NC(=O)CCc2c(C)nn(-c3ccc(N4CCOCC4)nn3)c2C)cc(OC)c1OC, the Potency is reported as inconclusive: 3.55 µM [activator, partial curve, poor fit].
In the case of COc1ccc(-c2nc3c(c(=O)[nH]c(=O)n3Cc3ccccc3)n2CCO)cc1, the Potency is reported as active: 2.24 µM.
For CN(C(=O)CN1C(=O)c2ccccc2S1(=O)=O)C1CCCCC1, the Potency was inconclusive: 12.6 µM [inhibitor, partial curve, poor fit].
For [O-]C1=N/[N+](=C/c2ccc(Cl)cc2)CC1, the “activity change, negative = inhibition” value was inactive: 19.4%.
In the case of COc1ccc(NC(=S)N(CCc2c(C)[nH]c3ccccc23)Cc2ccco2)cc1, the Potency is reported as inconclusive: 16.4 µM [inhibitor, single point].
With O=C(NCc1ccccc1F)C1CCN(c2nnc(-n3cccc3)s2)CC1 the Potency was inconclusive: 35.5 µM [activator, single point].
With COc1ccccc1NC(=O)CSc1nnc(-c2ccccc2C)o1 the Potency was inconclusive: 7.08 µM [activator, partial curve, poor fit].
With COc1cc(NC(=O)C2CC(c3c(F)cccc3Cl)=NO2)c(OC)cc1Cl (configuration not stated) the Potency was inconclusive: 11.2 µM [inhibitor, partial curve, poor fit].
In the case of Cc1nc2cc(NC(=O)Nc3cccc4ccccc34)ccc2n1C, the “activity change, negative = inhibition” value is reported as inactive: -0.376%.
For O=[N+]([O-])c1ccccc1CN1CCN(Cc2c[nH]c3ccccc23)CC1, the Potency was inconclusive: 35.5 µM [inhibitor, single point].
For CC1=C(C(=O)OCc2ccc(C)cc2)C(c2ccccc2F)CC(=O)N1 (configuration not stated), the Potency was inconclusive: 5.62 µM [inhibitor, single point].
With O=C(CSc1nnc(Nc2ccccc2)s1)Nc1cccc(S(=O)(=O)N2CCCCC2)c1 the Potency was inconclusive: 15.8 µM [inhibitor, partial curve, poor fit].
For C=C(C)COc1ccc(-c2ncncc2-c2ccc(OC)cc2)c(O)c1, the Potency was inconclusive: 2.82 µM [inhibitor, full curve, poor fit].
In the case of CCCN1CCC(NC(=O)c2cccc(Oc3ccccc3)c2)CC1, the Potency is reported as inconclusive: 35.5 µM [inhibitor, single point].
In the case of CC(NC(=S)Nc1ccc(S(=O)(=O)N2CCOCC2)cc1)C1CC2CCC1C2 (configuration not stated), the Potency is reported as inconclusive: 14.6 µM [inhibitor, single point].
